# Assay results from PubChem BioAssay AID1347076 (National Center for Advancing Translational Sciences (NCATS), 2019).
# The whole screen tested about 400,000 compounds, of which about 13,000 (3.2%) were called active. The shares of active, inactive and inconclusive entries below differ from those in the screen. Calls come from the whole dose curve; as a rule, active = well fitted cell-killing curve with a large enough effect; inconclusive = small, poorly fitted or top-dose-only effect, or effect the other way; inactive = flat fitted curve, though single readings scatter. Where the call is inconclusive, the potency comes from a doubtful curve fit.
# Experiment: qHTS assay for MDR1-selective chemotherapeutics: Primary screen using the drug-selected MDR subline cells KB-V1; note: nearly all actives have a fitted effect of over 60% in size
# Details: KB-V1 MDR cells viability, CellTiter-Glo, 72 h; activity change, negative = cytotoxicity: at 46.1 µM (top of the series)
# Procedure, shortened: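 qHTS viability screen in drug-selected KB-V1 MDR cells: 72 h compound treatment at 37 degrees C, ATP luminescence end point.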
# % is set by controls: 0 for no effect and ±100 for the full control effect; potency is the fitted concentration of half-maximal effect.
Compound,Potency,"activity change, negative = cytotoxicity"
CN1CCc2nc3ccccc3c(C(=O)OCC(=O)N(CCC#N)c3ccccc3)c2C1,"inconclusive: 29.1 µM [cytotoxic, single point]",
CC(C)CC(Nc1ncnc2scc(-c3ccccc3)c12)C(=O)O (stereo not given),,inactive: 3.13%
COc1ccc(Cn2c(SCc3cc(C)ccc3C)nc3cc(OC)c(OC)cc3c2=N)cc1,active: 11.2 µM,
CCOc1ccc(CN(C)CC(=O)Nc2ccccc2C(=O)NC2CC2)cc1,,inactive: 0%
CC(=O)Nc1ccc(/C=N/NC(=S)NC(C)C)cc1,,inactive: -19.4%
CCCCNC(=O)CCn1c(=O)c2ccccc2n(Cc2ccc(Cl)cc2)c1=O,active: 14.6 µM,
CCc1cccc(C)c1NC(=O)C1CCCO1 (stereo not given),,inactive: -8.43%
Nc1c(C(=O)NCc2cccnc2)sc(=S)n1-c1ccccc1,"inconclusive: 23.1 µM [cytotoxic, single point]",
COc1cccc(C(=O)NC(=NCCc2c[nH]c3ccc(OC)cc23)Nc2nc(C)cc(C)n2)c1,active: 23.1 µM,
CCOc1cc(CNc2ccccc2)cc(Br)c1OCc1ccc(F)cc1,"inconclusive: 29.1 µM [cytotoxic, partial curve, poor fit]",
Cc1ccc(NC(=O)C2CCN(S(C)(=O)=O)CC2)cc1C,"inconclusive: 0.0366 µM [rising, full curve]",
S=C(NCC1CCCO1)N1CCN(c2nc(-c3ccc(Cl)cc3)cs2)CC1 (stereo not given),"inconclusive: 7.31 µM [cytotoxic, partial curve]",
Cn1nc(C(C)(C)C)cc1C(=O)NCc1ccc(N2CCCC2=O)cc1,active: 0.58 µM,
COCCNC(=O)CCN1N=C(c2ccccc2)CCC1=O,,inactive: 6.36%
Cc1cc(C)c([C@@H]2C[C@H]3CN(C4CCCC4)C(=O)[C@]34CCCN24)c(-n2cccn2)c1,"inconclusive: 6.51 µM [cytotoxic, full curve]",
O=C(/C=C/c1ccccc1)Nc1ccc(CN2CCOCC2)cc1,,inactive: 3.5%
CCC1(c2ccc(F)cc2)NC(=O)N(CC(=O)N2CCN(S(=O)(=O)c3ccc(C)cc3)CC2)C1=O (stereo not given),"inconclusive: 29.1 µM [rising, single point]",
O=S(=O)(NCCSc1nnnn1-c1ccccc1)c1cccs1,active: 16.4 µM,
Cc1cc(=O)oc(C)c1C(=O)NCC1COc2ccccc2O1 (stereo not given),"inconclusive: 18.4 µM [cytotoxic, single point]",
O=C(NC(c1ccccc1)c1ccc2ccccc2n1)C1CCN(Cc2cccc(C(F)(F)F)c2)CC1 (stereo not given),"inconclusive: 25.9 µM [cytotoxic, single point]",
Cc1ccc(C)c(N2CCN(C(=O)CCNS(=O)(=O)c3ccc4c(c3)CCN4C(=O)C3CC3)CC2)c1,"inconclusive: 18.4 µM [cytotoxic, single point]",
COc1ccc(-c2oc3c(c2C(=O)OCCCO)C(OCCO)CCC3)cc1 (stereo not given),"inconclusive: 16.4 µM [cytotoxic, partial curve, poor fit]",
COc1ccc(CN2C(=O)CCC2(C)c2nnnn2-c2ccc3c(c2)OCCO3)cc1 (stereo not given),"inconclusive: 16.4 µM [cytotoxic, partial curve, poor fit]",

# Reprinted at random: 3 compounds from above
Compound,Potency,"activity change, negative = cytotoxicity"
CCCCNC(=O)CCn1c(=O)c2ccccc2n(Cc2ccc(Cl)cc2)c1=O,active: 14.6 µM,
O=S(=O)(NCCSc1nnnn1-c1ccccc1)c1cccs1,active: 16.4 µM,
COc1ccc(Cn2c(SCc3cc(C)ccc3C)nc3cc(OC)c(OC)cc3c2=N)cc1,active: 11.2 µM,

# More compounds follow.

Compound,Potency,"activity change, negative = cytotoxicity"
O=C(C1CCC(Cn2c(=O)c3sccc3n(Cc3ccccc3)c2=O)CC1)N1CCCCC1 (stereo not given),,inactive: -16.2%
Cc1ccc(C(=O)N2CCN(S(=O)(=O)N3CCOCC3)CC2)cc1,"inconclusive: 0.0073 µM [rising, full curve, poor fit]",
CCCCCC(=O)Nc1ccc(C(=O)COC(=O)c2ccccn2)cc1,,inactive: 14.9%
Cc1cc(C)c2nc(N(CCCN(C)C)C(=O)c3ccc4c(c3)OCCO4)sc2c1,active: 25.9 µM,
CCOc1ccc(NC(=O)CCc2nc3cccnc3n2-c2ccccc2)cc1,,inactive: -13.7%
O=C1c2ccccc2C(=O)c2cc(S(=O)(=O)Nc3ccccc3)ccc21,"inconclusive: 18.4 µM [cytotoxic, single point]",
CCn1c(N2CCN(C(c3ccccc3)c3ccccc3)CC2)nc2c1c(=O)[nH]c(=O)n2C,"inconclusive: 32.6 µM [cytotoxic, single point]",
CC12CCC3c4ccc(O)cc4CCC3C1CC(O)C2O (stereo not given),"inconclusive: 29.1 µM [cytotoxic, single point]",
COc1ccc(S(=O)(=O)N2CN(Cc3ccco3)c3nc4ccccc4nc32)cc1,active: 5.8 µM,
O=C(CCS(=O)(=O)c1ccc(Br)cc1)NCc1ccco1,"inconclusive: 20.6 µM [rising, partial curve, poor fit]",
CCCC(=O)Nc1cc(OCC)c(NC(=O)NC2CCCCC2)cc1OCC,,inactive: -2.62%
COc1ccc(OC)c(NC(=O)CC2C(=O)NCCN2C(=O)C(F)(F)F)c1 (stereo not given),,inactive: -5.17%
Cc1ccc2nc(NCc3ccccc3)c(C=O)c(=O)n2c1,"inconclusive: 0.651 µM [rising, full curve, poor fit]",
COc1ccc2c(=O)c(Oc3ccc(C(=O)O)cc3)c(C(F)(F)F)oc2c1,"inconclusive: 18.4 µM [rising, single point]",
CC1CCN(c2nc3nonc3nc2Nc2ccc(F)cc2)CC1,"inconclusive: 16.4 µM [cytotoxic, partial curve]",
COc1ccc(Br)cc1C(=O)Nc1cccc(NC(=O)c2ccco2)c1,active: 9.2 µM,
CC(=O)c1ccc(Nc2nc3ccc(C)cc3n3cnnc23)cc1,"inconclusive: 29.1 µM [rising, single point]",
CC(C)N(C)C1=CC(=O)C(N(C)C(C)C)=CC1=O,"inconclusive: 20.6 µM [cytotoxic, single point]",
COc1ccc(-n2nnc(-c3nsc(NC(=O)c4ccc(C)c(C)c4)n3)c2C)cc1Cl,,inactive: 0.0477%
O=C(COC(=O)c1cc(S(=O)(=O)N2CCCC2)ccc1O)Nc1ccc(SC(F)F)cc1,"inconclusive: 29.1 µM [rising, single point]",
O=C(c1cccc(S(=O)(=O)NCCOc2ccccc2)c1)N1CCN(c2ncccn2)CC1,"inconclusive: 20.6 µM [cytotoxic, single point]",
CCOC(=O)[C@]12CCC=C1N(CCC1=CCCCC1)C(=O)[C@H](CC(=O)NCc1cccc(C(F)(F)F)c1)C2,"inconclusive: 13 µM [cytotoxic, partial curve]",
